According to PMC3637500:
No constants are given. Whether binding was seen depends on the method and setting. In cells and extracts the contact can be indirect. Where a sequence is shown, tags or fusion partners need not be part of it.

Target: T1, GST-PTP1B-D181A (substrate-trapping mutant of PTP1B, GST fusion protein) (mouse) (UniProt P35821)
T1 sequence: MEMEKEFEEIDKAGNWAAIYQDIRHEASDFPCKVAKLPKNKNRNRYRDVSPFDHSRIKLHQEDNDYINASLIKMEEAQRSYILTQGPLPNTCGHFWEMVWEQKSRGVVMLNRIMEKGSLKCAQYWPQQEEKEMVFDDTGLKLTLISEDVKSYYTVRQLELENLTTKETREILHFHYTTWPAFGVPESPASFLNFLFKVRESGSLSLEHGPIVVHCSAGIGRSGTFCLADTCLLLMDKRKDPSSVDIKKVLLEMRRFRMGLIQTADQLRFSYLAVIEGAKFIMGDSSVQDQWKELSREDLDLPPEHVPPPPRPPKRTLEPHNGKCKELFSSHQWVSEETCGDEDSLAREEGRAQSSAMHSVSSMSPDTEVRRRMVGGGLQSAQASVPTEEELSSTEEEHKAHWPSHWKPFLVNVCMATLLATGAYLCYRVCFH
Test: pull-down; substrate trapping: GST-PTP1B-WT or GST-PTP1B-D181A bound on glutathione beads; lysates of retinal ex vivo explants or HEK-293T cells treated with 1 mM pervanadate for 30 min; 2 h at 4°C in substrate-trapping buffer; immunoblot with anti-Gab1 or anti-Myc; only the target purified

With “Myc-tagged ΔPH-Gab1 (Gab1 with the PH domain deleted) (mouse) (domain or fragment)” the binding was “no binding”.
